# The list shows a part of the results. Further columns of the screen follow, without active or inactive calls. Most of these compounds were active or inconclusive in the main read-out, so they are no random draw. Potencies come from curve fits of mixed quality, noted in brackets.
# Assay: qHTS Assay for Lipid Storage Modulators in Drosophila S3 Cells;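 as to cell number change: cells counted by Cell Tracker Red CMTPX staining in the red channel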
# Conditions: BODIPY lipid droplet fluorescence, 18-24 h; for cell number change: measured here: cell count max response, cells fed with added oleic acid
# Outline: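 Laser-scanning cytometry quantifies lipid droplet accumulation (500–530 nm total intensity; droplet/cell object ratio) in oleic acid-fed (400 uM added) Drosophila S3 cells treated with a concentration series. 20 uM Triacsin C defined 100% inhibition.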
# [1] = measured here: lipid fluorescence (Fed channel) AC50, cells fed with added oleic acid
# [2] = measured here: cell number channel AC50, cells fed with added oleic acid
SMILES,cell number change [%],AC50 [1],AC50 [2]
CCOc1ccc(N2C(=O)NC(=O)/C(=C\c3ccc(N4CCCCC4)o3)C2=O)cc1,-2.21,"6.51 µM [falling, single point]",–
CCn1ccnc1CN1CCCC(C(=O)c2cc(Cl)ccc2OC)C1 (stereo not drawn),14.9,"0.259 µM [rising, full curve, poor fit]",–
CCOP(=O)(OCC)C(NC(=O)c1ccccc1Cl)=C(Cl)Cl,-18.8,–,"0.651 µM [falling, full curve, poor fit]"
CCCCn1c(=O)c(C(=O)NCc2ccccc2)c(O)c2ccccc21,28,–,–
O=C(c1ccccc1)C(CN1CCCC1)c1ccccc1 (stereo not drawn),-73,"29.1 µM [falling, single point]","25.9 µM [falling, single point]"
CCc1ccc(N2C(=O)NC(=O)C(CCc3ccncc3)(CCc3ccncc3)C2=O)cc1,-45.3,–,"32.6 µM [falling, single point]"
NC(=O)c1cn(C2OC(CO)C(O)C2O)c2ncnc(N)c12 (stereo not drawn),-18.9,"1.84 µM [falling, full curve]",–
Cc1oc(-c2cccs2)nc1CSCC(=O)N1CCC2(CC1)OCCO2,8.93,"6.51 µM [rising, single point]",–
Fc1ccccc1CCNCc1cccc(Cl)c1Cl,-6.03,–,–
COc1cc(CC2(CCc3ccncc3)C(=O)N(C)C(=O)N(C)C2=O)cc(OC)c1OC,17.1,"0.00517 µM [rising, full curve, poor fit]",–
Cc1c(NP(=O)(C(C)(C)C)C(C)(C)C)c(=O)n(-c2ccccc2)n1C,-5.01,"4.11 µM [falling, single point]",–
COc1ccc2c3c1OC1C(O)C=CC4C(C2)[N+](C)(C)CCC341 (stereo not drawn),-2.02,"0.82 µM [falling, full curve, poor fit]",–
O=C1NC(=O)C(=Cc2cccc(OCCOc3ccccc3)c2)C(=O)N1,-2.78,–,–
COc1ccc(NC(=O)c2cn(CCC#N)nc2-c2ccccc2)cc1,15.7,"2.06 µM [rising, partial curve]",–
Cc1cc(=O)oc2c(C)c(OCC(=O)N3C[C@H]4C[C@@H](C3)c3cccc(=O)n3C4)ccc12,17.8,–,–
CN1CC(C#N)C2(O)c3ccccc3CCC2C1 (stereo not drawn),4.69,"29.1 µM [rising, single point]",–
CNC(C)Cc1ccccc1Sc1ccc(O)cc1 (stereo not drawn),–,"2.91 µM [falling, partial curve]",–
O=C(NCc1cccnc1)NC1CCCCC1,1.76,"3.66 µM [falling, full curve]",–
COc1ccc(C(=O)OC2CC3CCC(C2)[N+]3(C)[O-])cc1OC (stereo not drawn),24.6,"8.2 µM [rising, partial curve]",–
COC(=O)C(O)(c1ccc(NC(=O)c2ccco2)c(OC)c1)C(F)(F)F (stereo not drawn),2.21,"6.51 µM [falling, single point]",–
O=c1[nH]c(=O)n(Cc2ccccc2)c(O)c1/C=N/Nc1c(F)c(F)c(F)c(F)c1F,2.94,"3.26 µM [rising, single point]",–
COc1ccccc1-n1c(O)c(C=NCCCn2ccnc2)c(=O)[nH]c1=O,-13.9,–,–
COc1ccc2c(c1)CC1(CN2C)C(=O)NC(=O)N(c2ccc(F)cc2)C1=O (stereo not drawn),4.06,"5.8 µM [falling, single point]",–
CN(C)c1ccc(/C=C2/C(=O)NC(=O)N(Cc3ccco3)C2=O)cc1,-8.36,"1.3 µM [falling, full curve, poor fit]",–
Cn1c(O)c(/C=C2\N=c3ccccc3=C2CCNC(=S)NC2CC2)c(=O)n(C)c1=O,-29,"23.1 µM [falling, partial curve]",–
Cc1nccc2c1[nH]c1ccccc12,7.79,"1.84 µM [rising, full curve, poor fit]",–
CC[n+]1c(/C=C/C=C/c2ccc(N(C)C)cc2)sc2ccccc21,-60.9,"2.31 µM [falling, full curve]","1.16 µM [falling, full curve]"
CCN(CC)c1ccc(N=Cc2c(O)n(-c3ccccc3)c(=O)[nH]c2=O)cc1,37.1,"4.61 µM [rising, partial curve]","0.82 µM [rising, partial curve, poor fit]"
BrCC(Br)C1CCC(Br)C(Br)C1 (stereo not drawn),-20.9,"0.00411 µM [falling, full curve, poor fit]",–

# A few values from the entries so far.
# Under cell number change [%], NC(=O)c1cn(C2OC(CO)C(O)C2O)c2ncnc(N)c12 (stereo not drawn) has -18.9
# Under cell number change [%], Fc1ccccc1CCNCc1cccc(Cl)c1Cl has -6.03
